We go through 1 substance from publication PMC3875492.

Amino acid sequences for entries named in this document (tags omitted). Residues count along the entry.
UniProt P40763: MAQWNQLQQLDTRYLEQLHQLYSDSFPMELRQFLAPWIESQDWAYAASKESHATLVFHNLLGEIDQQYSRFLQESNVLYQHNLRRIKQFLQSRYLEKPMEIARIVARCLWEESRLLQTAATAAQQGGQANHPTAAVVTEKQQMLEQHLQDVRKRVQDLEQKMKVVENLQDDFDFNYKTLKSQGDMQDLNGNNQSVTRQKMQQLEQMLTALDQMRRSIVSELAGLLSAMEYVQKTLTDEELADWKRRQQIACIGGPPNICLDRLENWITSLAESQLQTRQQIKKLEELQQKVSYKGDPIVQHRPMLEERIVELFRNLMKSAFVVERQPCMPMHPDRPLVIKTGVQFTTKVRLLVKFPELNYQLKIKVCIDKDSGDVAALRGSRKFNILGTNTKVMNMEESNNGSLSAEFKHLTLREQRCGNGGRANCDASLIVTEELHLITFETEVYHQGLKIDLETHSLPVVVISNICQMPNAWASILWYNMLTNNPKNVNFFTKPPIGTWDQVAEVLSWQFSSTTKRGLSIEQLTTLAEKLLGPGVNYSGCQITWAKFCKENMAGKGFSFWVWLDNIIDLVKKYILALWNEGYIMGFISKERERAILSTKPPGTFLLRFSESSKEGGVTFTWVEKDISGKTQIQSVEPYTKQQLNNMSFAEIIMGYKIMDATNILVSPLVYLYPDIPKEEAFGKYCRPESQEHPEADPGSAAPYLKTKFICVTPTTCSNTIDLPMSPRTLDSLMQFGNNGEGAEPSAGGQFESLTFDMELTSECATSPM
UniProt P16070, residues 21-742: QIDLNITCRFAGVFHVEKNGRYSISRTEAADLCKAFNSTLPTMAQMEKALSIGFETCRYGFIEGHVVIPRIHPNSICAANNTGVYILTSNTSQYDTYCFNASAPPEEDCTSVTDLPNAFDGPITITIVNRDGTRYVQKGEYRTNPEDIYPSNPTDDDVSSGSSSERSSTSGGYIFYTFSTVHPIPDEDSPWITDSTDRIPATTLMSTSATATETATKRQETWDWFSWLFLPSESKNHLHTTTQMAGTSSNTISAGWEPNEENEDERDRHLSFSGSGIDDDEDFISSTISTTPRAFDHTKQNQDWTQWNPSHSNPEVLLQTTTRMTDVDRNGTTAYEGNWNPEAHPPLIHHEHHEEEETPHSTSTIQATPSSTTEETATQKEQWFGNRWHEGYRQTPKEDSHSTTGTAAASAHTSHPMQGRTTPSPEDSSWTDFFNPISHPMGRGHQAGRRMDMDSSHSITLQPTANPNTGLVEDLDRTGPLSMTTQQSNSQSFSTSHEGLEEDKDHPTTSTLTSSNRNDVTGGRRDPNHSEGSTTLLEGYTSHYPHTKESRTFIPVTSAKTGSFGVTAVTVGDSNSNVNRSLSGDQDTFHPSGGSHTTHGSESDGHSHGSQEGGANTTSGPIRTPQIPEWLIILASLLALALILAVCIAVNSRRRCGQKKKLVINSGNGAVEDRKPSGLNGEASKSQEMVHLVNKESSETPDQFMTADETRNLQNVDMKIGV

No constants are given. Whether binding was seen depends on the method and setting. In cells and extracts the contact can be indirect. Some binding calls cover weakened binding; strength is not graded here.

The target in experiment [1] is Signal transducer and activator of transcription 3 (STAT3) (human (endogenous in MDA-MB-231 and MCF7-HER2)) (UniProt P40763). In words: co-IP; STAT3 monoclonal antibody and protein A agarose; nuclear extracts of MDA-MB-231 and MCF7-HER2 cells; western blot of the immuno-pellets.
The target is the same in experiment [2]. Put plainly: co-IP; STAT3 monoclonal antibody and protein A agarose; cytoplasmic extracts of MDA-MB-231 and MCF7-HER2 cells; western blot of the immuno-pellets. (In general: A western blot detects proteins with antibodies after separation by electrophoresis.)

“CD44 (from UniProt P16070 21-742) (receptor)”: the binding entry in experiment [1] is given as “no binding (condition: in nuclear extracts)”; in experiment [2], “binds”.
